Experimental findings from PubChem BioAssay AID2685 (National Center for Advancing Translational Sciences (NCATS), 2010) are described below.

The nature of the experiment: qHTS Assay for Lipid Storage Modulators in Drosophila S3 Cells.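 As to cell number change: cells counted by Cell Tracker Red CMTPX staining in the red channel.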 To be noted: BODIPY lipid droplet fluorescence, 18-24 h; for cell number change: measured here: cell count max response, cells fed with added oleic acid. The procedure, abridged:
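Drosophila S3 cells got compounds at several concentrations plus oleic acid (400 uM solution). Laser-scanning cytometry with 488 nm excitation read lipid droplets at 500-530 nm and cells at 575-640 nm. Percent activity was relative to 20 uM Triacsin C.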
(In general: In qHTS, concentration-response curves come from the screen itself.)

The mark [1] stands for this setting: measured here: lipid fluorescence (Fed channel) AC50, cells fed with added oleic acid.
Setting [2] is: measured here: cell number channel AC50, cells fed with added oleic acid.

This is one part of the list. Further columns of the screen follow, without active or inactive calls. The list favours compounds with an active or inconclusive main result. Potencies come from curve fits of mixed quality, noted in brackets.

Turning to `CCc1nc2ccc(C(=O)N(C)CC(=O)Nc3ccc(F)c(F)c3F)cc2nc1CC`, the cell number change amounted to 20%.

In the case of `COc1cc(CCC(=O)NCc2ccc3c(c2)OCO3)cc(OC)c1OC`, the cell number change is -13.4%. In addition, the concentration at half-maximal activity (AC50) – broadly, the concentration at which the activity in the assay is half-maximal – under setting [1] is 29.1 µM [falling, single point].

Turning to `O=C(CSc1nc(-c2ccccc2)cs1)Nc1ccccc1[N+](=O)[O-]`, the cell number change was found to be 2.25%. Moreover, the AC50 under setting [1] is 0.82 µM [rising, full curve, poor fit]. As for `Oc1ccc(Br)cc1-c1nc2cnccn2c1NC1CCCC1`, the cell number change is -18.1%. Also, the half-maximal activity concentration (AC50) under setting [1] was 2.31 µM [rising, partial curve, poor fit].

Take `CN(Cc1ccc(C(C)(C)C)cc1)C(=O)Cc1ccc(S(=O)(=O)N2CCOCC2)s1`: the cell number change is -18.2%. The AC50 under setting [1] is 32.6 µM [falling, partial curve, poor fit]. `N=c1sccn1CC(=O)Nc1ccc(Cl)cc1[N+](=O)[O-]`: the cell number change stood at 23.7%. The concentration at half-maximal activity (AC50) under setting [1] is 0.731 µM [rising, full curve, poor fit]. With `Cc1cc(-c2nnc3sc(-c4ccc(Cl)cc4Cl)nn23)n[nH]1`, the cell number change was -16.6%. Further, under setting [2], the AC50 is 2.59 µM [rising, single point]. Besides, the half-maximal activity concentration (AC50) under setting [1] is 3.26 µM [rising, partial curve, poor fit].

Turning to `CCc1c(C(=O)OC)nnc2cc(C)nn12`, the cell number change was -48.5%. Further, the AC50 under setting [2] was 23.1 µM [falling, single point]. Regarding `COc1cc2c(cc1NC(=O)Nc1cccc(C)c1)oc1ccccc12`, the cell number change is 3.05%. In addition, the AC50 under setting [1] was 3.66 µM [rising, single point]. In the case of `COc1cccc(NC(=O)CC(c2ccc(OC(C)C)cc2)c2ccccc2OC)c1` (centres undefined), the cell number change is -18.3%.

As for `CC(=O)N1CCN(C(=O)C(Cc2ccccc2)NC(=O)c2ccccc2)CC1` (centres undefined), the cell number change is 26%.

As to `CCCS(=O)(=O)c1nnnn1-c1cccc(OC)c1`, the cell number change was -165%. The AC50 under setting [2] is 29.1 µM [falling, partial curve]. The concentration at half-maximal activity (AC50) under setting [1] was 9.2 µM [falling, partial curve]. Take `Cc1ccc(CNC(=O)CN2CCN(Cc3ccc(C)cc3)C2=O)cc1`: the cell number change was -15.2%. The AC50 under setting [1] was 23.1 µM [falling, single point]. `CCOc1ccc(CCNC(=O)Cn2cccc2C(=O)c2ccccc2C)cc1OCC`: the cell number change was -33.9%. Also, the AC50 under setting [2] was 3.26 µM [falling, full curve, poor fit]. Also, the AC50 under setting [1] was 7.31 µM [falling, partial curve].

Consider `O=C(O)c1ccc(C2(c3ccc(C(=O)O)cc3)OC(=O)c3ccccc32)cc1`, for which the cell number change was found to be 18.9%. Also, the AC50 under setting [1] is 0.00461 µM [rising, full curve, poor fit].

As to `Cc1ccc(C)c(OCCn2cc(/C=C(\C#N)C(=O)NCC3CCCO3)c3ccccc32)c1` (centres undefined), the cell number change was determined as 58.2%. Besides, the AC50 under setting [2] is 29.1 µM [rising, single point]. Also, the half-maximal activity concentration (AC50) under setting [1] was 3.66 µM [falling, partial curve]. Turning to `O=C(CCC1CCCC1)Nc1cccn(Cc2ccccc2Br)c1=O`, the cell number change stood at 10.2%. Besides, under setting [1], the half-maximal activity concentration (AC50) was 0.82 µM [rising, full curve, poor fit]. In the case of `C1=CC2CCC1ON2c1ccccc1` (centres undefined), the cell number change was 467%. In addition, under setting [2], the half-maximal activity concentration (AC50) is 23.1 µM [rising, single point]. The half-maximal activity concentration (AC50) under setting [1] is 2.59 µM [falling, partial curve, poor fit].

As to `CCOC(=O)N1CCN(S(=O)(=O)N2CCCC(C(=O)NCCc3ccc(C)cc3)C2)CC1` (centres undefined), the cell number change was -11.9%. For the same compound, under setting [1], the half-maximal activity concentration (AC50) was 0.00461 µM [rising, full curve, poor fit]. For the compound `COc1ccc(C(=O)OCCc2cc3ccccc3c(=O)o2)cc1`, the cell number change is -1.94%. Also, under setting [1], the AC50 is 0.13 µM [rising, single point]. As to `COc1ccc2[nH]c3nc(SCc4nnc(-c5ccc(C)cc5)o4)nnc3c2c1`, the cell number change is -2.73%. Further, the half-maximal activity concentration (AC50) under setting [2] was 1.03 µM [rising, partial curve, poor fit]. For the same compound, the AC50 under setting [1] is 2.59 µM [rising, full curve]. For `COc1ccc(-n2cnc3ccccc32)cc1`, the cell number change is 55.9%. Besides, the half-maximal activity concentration (AC50) under setting [2] was 10.3 µM [rising, partial curve]. Consider `CCCCNC(=O)C1CCCN1C(=O)Nc1cccc(OC)c1` (centres undefined), for which the cell number change is -7.05%. Also, the half-maximal activity concentration (AC50) under setting [1] was 3.26 µM [rising, full curve].

For the compound `Cc1c2c(=O)n(-c3nc4ccccc4s3)nc-2cc(O)n1Cc1ccccc1`, the cell number change was -22.6%. Take `CC1(C)C(=O)Nc2ccccc2N1C(=O)COC(=O)COc1cccc(C(F)(F)F)c1`: the cell number change is -5.95%. Under setting [1], the AC50 was 20.6 µM [falling, partial curve]. On to `Cc1ccc(C)c(-n2c(CNC(=O)c3ccco3)nnc2SCC(=O)Nc2nnc(C)s2)c1`, for which the cell number change was 2.73%.

`COc1ccc(NC2=CC(c3cccc(OC)c3)N(c3ccc(OC)cc3)C2=O)cc1` (centres undefined): the cell number change was -1.81%.

`Cc1cccc(Nc2nc3c(S(=O)(=O)c4ccccc4)nnn3c3ccccc23)c1C`: the cell number change was found to be 4.23%. The half-maximal activity concentration (AC50) under setting [1] is 0.366 µM [rising, partial curve, poor fit].

Consider `CCCCCC(=O)Nc1cc(S(=O)(=O)N2CCOCC2)ccc1N1CCCCC1`, for which the cell number change is -8.32%. The AC50 under setting [1] was 6.51 µM [rising, single point].

For the compound `COCCOC(=O)/C(=C\c1cc(C(C)(C)C)c(O)c(C(C)(C)C)c1)C(C)=O`, the cell number change is -3.92%. Under setting [1], the AC50 is 0.651 µM [rising, single point]. `CCOc1ccc2nc(C)cc(Nc3cccc([N+](=O)[O-])c3)c2c1`: the cell number change was -17.7%. As for `COc1cc(C)c(C(C)C)cc1S(=O)(=O)N1CCOCC1`, the cell number change is 5.08%. Turning to `O=C(Nc1ccc2nc3n(c(=O)c2c1)CCCCC3)c1c(F)ccc([N+](=O)[O-])c1F`, the cell number change was -62.9%. Under setting [2], the AC50 was 18.4 µM [falling, partial curve]. Moreover, the AC50 under setting [1] was 1.64 µM [falling, full curve]. For the compound `COc1ccc(S(=O)(=O)Nc2ccc(O)c3ccccc23)cc1`, the cell number change is -155%. Further, the AC50 under setting [2] was 29.1 µM [falling, single point]. Besides, the half-maximal activity concentration (AC50) under setting [1] was 29.1 µM [falling, single point].

In the case of `O=C(COc1ccc(F)cc1Cl)NC1CCCCCC1`, the cell number change is -38.3%. Moreover, the half-maximal activity concentration (AC50) under setting [2] was 13 µM [falling, partial curve].

Take `CC(=O)NCCCc1nc2ccccc2n1Cc1ccccc1C`: the cell number change came to 32.2%. Further, the AC50 under setting [2] was 7.31 µM [rising, partial curve, poor fit]. Besides, under setting [1], the concentration at half-maximal activity (AC50) is 10.3 µM [rising, partial curve]. For `COCCCNC(=O)Cn1c(=O)n(Cc2ccc(F)cc2)c(=O)c2sccc21`, the cell number change came to 24.9%. For `O=C(CSc1nnc(COc2ccccc2)o1)N1CCCC1`, the cell number change was -25.6%. In the case of `Cc1cc(C)c2c(c1)cc(C)c1nnc(SCC(=O)Nc3cc(C)on3)n12`, the cell number change is -18.3%. For the compound `COC(=O)C(Cc1c[nH]c2ccccc12)NC(=O)c1cccs1` (centres undefined), the cell number change is -25.8%. Moreover, the half-maximal activity concentration (AC50) under setting [1] was 25.9 µM [falling, single point]. As for `COc1c(O)cnn(-c2ccccc2)c1=O`, the cell number change was -27.1%. In addition, under setting [1], the AC50 was 0.82 µM [falling, full curve, poor fit]. For the compound `CN(C)c1ccc(NC(=O)c2cccc([N+](=O)[O-])c2)c2ccccc12`, the cell number change amounted to 12.4%. Besides, under setting [1], the concentration at half-maximal activity (AC50) was 29.1 µM [falling, single point]. Take `CC(C)(C)OC(=O)NCCOC(=O)c1[nH]cnc1C(=O)NCc1ccccc1`: the cell number change came out at 3.69%. Also, the concentration at half-maximal activity (AC50) under setting [1] is 0.0164 µM [falling, full curve, poor fit].

For `CCN1CCN(C(=O)c2ccc(Cl)c(S(=O)(=O)N3CCOCC3)c2)CC1`, the cell number change is -12.5%. Also, the AC50 under setting [2] is 0.82 µM [falling, full curve, poor fit]. The concentration at half-maximal activity (AC50) under setting [1] was 1.03 µM [falling, full curve, poor fit]. `Cc1cc(C(=O)NCc2cccs2)no1`: the cell number change is -22.6%. Further, the AC50 under setting [2] is 0.651 µM [falling, full curve, poor fit]. The concentration at half-maximal activity (AC50) under setting [1] is 0.731 µM [falling, full curve].

As to `Oc1ccc(-c2n[nH]c(=S)n2-c2ccc3c(c2)OCCO3)cc1`, the cell number change is -0.176%. Also, the AC50 under setting [1] was 4.61 µM [rising, full curve, poor fit].

Consider `COc1ccc(CCC(=O)NNC(=O)c2cc(Cl)ccc2OC)cc1`, for which the cell number change worked out at 9.58%. Also, the half-maximal activity concentration (AC50) under setting [1] was 2.31 µM [rising, partial curve]. For `CCOC(=O)c1c(NC(=O)CCN2CCOCC2)sc2c1CC(C)(C)OC2`, the cell number change was -21.7%. Regarding `O=c1c(Cl)c(N2CCN(S(=O)(=O)c3ccc(F)cc3)CC2)cnn1-c1cccc(Cl)c1`, the concentration at half-maximal activity (AC50) under setting [1] was 29.1 µM [falling, single point].

As for `CN(CCO)c1ccc(C(C(=O)c2ccccc2)c2ccc(N(C)CCO)cc2)cc1`, the cell number change is -38.7%. For the same compound, the AC50 under setting [2] is 32.6 µM [falling, single point].

Turning to `CC(C)(C)NS(=O)(=O)c1ccc(OCC(=O)Nc2ccc3c(c2)OCCO3)cc1`, the cell number change is -11.5%. The half-maximal activity concentration (AC50) under setting [1] is 0.517 µM [falling, full curve, poor fit]. Regarding `Cc1cc(Nc2ccc(C)c(F)c2)n2ncnc2n1`, the cell number change was -5.35%. Besides, under setting [1], the AC50 is 29.1 µM [rising, single point]. For the compound `COc1ccc(OCC(=O)Nc2nc3ccccc3[nH]2)cc1`, the concentration at half-maximal activity (AC50) is 2.06 µM [rising, partial curve] under setting [2] and 3.66 µM [rising, partial curve] under setting [1]. As for `O=C(COC(=O)c1ccc(F)c(S(=O)(=O)N2CCOCC2)c1)NC1CC1`, the cell number change is -1.1%. Under setting [1], the concentration at half-maximal activity (AC50) was 0.411 µM [rising, full curve, poor fit]. In the case of `O=C(c1ccccc1)N1CCC(c2nc3c(nnn3Cc3ccco3)c(=O)[nH]2)CC1`, the cell number change was found to be 7.73%. The half-maximal activity concentration (AC50) under setting [1] was 0.82 µM [rising, full curve, poor fit].

As for `Cc1sc(NC(=O)CCCC(=O)O)c(C#N)c1C`, the cell number change was -0.287%. The concentration at half-maximal activity (AC50) under setting [1] was 32.6 µM [falling, partial curve]. For `CC(C)(C)C(=O)Nc1nc2c(s1)CN(Cc1ccccc1)CC2`, the cell number change is -16.6%. With `O=S(=O)(Nc1cccc(Oc2ccc(Cl)cc2)n1)c1ccc(F)cc1`, the cell number change was -33.2%. Further, the concentration at half-maximal activity (AC50) under setting [2] is 32.6 µM [falling, single point]. The AC50 under setting [1] is 32.6 µM [falling, single point]. Regarding `CC(C)(C)NCC(O)COc1cccc2c1CC(O)C(O)C2` (centres undefined), the cell number change was found to be 0.808%. Besides, the AC50 under setting [2] was 0.82 µM [falling, partial curve]. The AC50 under setting [1] is 0.517 µM [falling, single point]. Take `CN(Cc1ccnc2ccccc12)C(=O)C1CCC(=O)N(Cc2ccccc2F)C1` (centres undefined): the cell number change amounted to 12.9%. Moreover, the AC50 under setting [1] was 14.6 µM [rising, partial curve, poor fit].
